Assay results published in patent US10689458B2 (Pfizer Inc., priority 2015, dated 2020).

Test: general procedure: solution-phase peptide synthesis; HATU

Row | Substance | step yield (late stage modification step) [%] | step yield (coupling step) [%]
1 | 2-methylalanyl-N-[(3R,4S,5S)-3-methoxy-1-{(2S)-2-[(1R,2R)-1-methoxy-2-methyl-3-oxo-3-{[(1S)-2-phenyl-1-(1,3-thiazol-2-yl)ethyl]amino}propyl]pyrrolidin-1-yl}-5-methyl-1-oxoheptan-4-yl]-N-methyl-L-valinamide | 75 | 
2 | N-[(9H-fluoren-9-ylmethoxy)carbonyl]-2-methylalanyl-N-[(3R,4S,5S)-3-methoxy-1-{(2S)-2-[(1R,2R)-1-methoxy-2-methyl-3-oxo-3-{[(1S)-2-phenyl-1-(1,3-thiazol-2-yl)ethyl]amino}propyl]pyrrolidin-1-yl}-5-methyl-1-oxoheptan-4-yl]-N-methyl-L-valinamide |  | 74
